According to patent publication US5580751 (dated 1996):
No end group written: not given here.

Experiment: peptide synthesis
Conditions: late stage modification step
In the case of PQTAIGVGAP-NH2, the step yield is reported as greater than 70%. Work on “Pro-Gln-Thr-Ala-Ile-Gly-Val-Gly-Ala-Pro-2-nitrophenylglycine (SEQ ID NO:12) amide” yielded a step yield greater than 90%. For “Tyr-Gly-Trp-Met-Asp-Phe-2-nitrophenylglycine amide”, the step yield was roughly 100%.
